Results from PubChem BioAssay AID1487 (National Center for Advancing Translational Sciences (NCATS), 2009).
The list shows a part of the results. Shown are side measurements of this screen, not its main read-out; they come without a call. Compounds called inactive in the main read-out are mostly missing here. The note in brackets gives the kind of curve behind each potency; many fits are weak.

Assay: qHTS Assay for Modulators of Lamin A Splicing
Details: HeLa LMNA splicing GFP/RFP minigene ratio, 48 h
Method in brief: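 Read-out is the ratio of GFP to DsRed2 object intensity, acquired by 488 nm laser-scanning cytometry on HeLa lamin A-EGFP minigene reporter cells. Compound incubation 48 hrs at 37 °C in Opti-MEM with 2% FBS; DMSO 0.5% final.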

[1] = measured here: GFP splicing reporter channel
[2] = measured here: RFP viability control channel

SMILES	AC50 [1]	AC50 [2]
O=C(NC1(C(F)(F)F)Oc2ccccc2O1)N1CCCC1	35.5 µM [falling, single point]	–
CCCCN(C)c1ncnc2c1cnn2-c1cccc(Cl)c1	31.6 µM [falling, partial curve]	–
COc1ccccc1CNc1ncnc2nc[nH]c12	0.891 µM [rising, full curve, poor fit]	–
CCOc1ccccc1NC(=O)C1CCCN(S(=O)(=O)c2ccc3c(c2)CCCN3C(C)=O)C1 (centres undefined)	–	0.02 µM [falling, full curve, poor fit]
CCOC(=O)C1=C(c2ccc(OC)cc2)C(=O)c2ccccc2C1=O	–	35.5 µM [falling, single point]
Cc1cc(NC(=O)COC(=O)c2oc3c(ccc4ccccc43)c2C)no1	0.158 µM [rising, full curve, poor fit]	0.141 µM [rising, full curve, poor fit]
Cc1cc(C(=O)CSc2nc3ccccc3c(=O)n2C)c(C)n1CC1CCCO1 (centres undefined)	–	0.316 µM [rising, full curve, poor fit]
Cc1cc(SCC(=O)NCc2ccccc2)nc(=O)[nH]1	0.0112 µM [rising, full curve, poor fit]	15.8 µM [rising, partial curve]
Cc1ccc(C(=O)Nc2ccc([N+](=O)[O-])cn2)o1	2.51 µM [rising, partial curve, poor fit]	0.251 µM [rising, full curve, poor fit]
C/C(=N\Nc1ncc(Cl)cc1Cl)c1ccccn1	–	20 µM [rising, partial curve]
O=C(NNC(=O)c1ccc2ccccc2c1O)c1ccccc1Cl	–	25.1 µM [rising, single point]
CCOC(=O)CSc1nc(N2CCOCC2)c2c(c1C#N)CC(C)(C)N(C)C2	–	3.16 µM [rising, partial curve]
COc1ccc(-c2csc3nc(-c4cccnc4)nc(Cl)c23)cc1OC	0.00708 µM [falling, full curve, poor fit]	–
Cc1cccc(-c2cc(NC(=O)COc3ccccc3F)n(-c3ccccc3)n2)c1	5.62 µM [rising, single point]	5.62 µM [rising, single point]
O=C(CCc1ccccc1)Nc1ccccc1C(=O)N1CCOCC1	–	0.1 µM [falling, full curve]
COc1ccc(S(=O)(=O)n2nc(OC(=O)c3c(-c4ccccc4Cl)noc3C)cc2N)cc1	14.1 µM [falling, partial curve]	22.4 µM [falling, single point]
CCC(C)c1ccc(O)c(NC(=O)c2cncc(Br)c2)c1 (centres undefined)	–	7.08 µM [rising, partial curve, poor fit]
COc1cccc(OC)c1C(=O)Nn1c(-c2cccs2)nc2ccccc2c1=O	5.01 µM [rising, full curve, poor fit]	5.62 µM [rising, partial curve, poor fit]
C=CCOc1ccc(CN(C)Cc2nc3cc(C(F)(F)F)ccc3c(=O)[nH]2)cc1	–	6.31 µM [falling, partial curve, poor fit]

SMILES	AC50 [1]	AC50 [2]
COc1cccc(/C=C/C(=O)Nc2ccc(OC)nc2)c1	–	35.5 µM [rising, single point]
O=C(N/N=C/c1cc([N+](=O)[O-])cc([N+](=O)[O-])c1O)/C(=C\c1cccs1)NC(=O)c1ccccc1	–	6.31 µM [rising, partial curve]
Nc1c2c3c(sc2nc(=O)n1N)CCCC3	35.5 µM [falling, single point]	–
COc1cccc(NC(=S)NNC(=O)c2c([N+](=O)[O-])c(C)nn2C)c1	25.1 µM [falling, partial curve, poor fit]	35.5 µM [falling, single point]
Cc1ccc(/C=C2/Sc3ccccc3N(CC(=O)NCCCOC(C)C)C2=O)cc1	–	35.5 µM [rising, single point]
O=C(c1ccc(Br)s1)N1CCN(C/C=C/c2ccccc2)CC1	–	35.5 µM [rising, single point]
CCS(=O)(=O)c1ncc(N(Cc2ccco2)Cc2sccc2C)c(C(=O)Nc2cc(C)ccc2C)n1	3.16 µM [falling, single point]	4.47 µM [falling, single point]
O=C(Nc1ccccc1Oc1ccccc1)c1cc([N+](=O)[O-])ccc1Cl	–	35.5 µM [rising, single point]
CCOC(=O)c1ccc(NC(=O)Nc2ccc3c(c2)OCCO3)cc1	–	35.5 µM [rising, single point]
COc1ccc(C(=O)NCCc2sc(-c3cccc(F)c3)nc2C)cc1	0.141 µM [falling, full curve, poor fit]	0.126 µM [falling, full curve, poor fit]
COc1cccc(-c2nnc(N(C)C(=O)c3ccno3)s2)c1	–	0.891 µM [falling, partial curve]
C[C@@H](N)C1CCC(C(=O)Nc2ccncc2)CC1 (some centres undefined)	0.0224 µM [rising, full curve, poor fit]	6.31 µM [falling, partial curve, poor fit]
COc1cc(/C=C/c2ccc(O)cc2)cc(OC)c1	3.55 µM [falling, partial curve, poor fit]	31.6 µM [rising, single point]
CCOC(=O)c1ncn2c1CN(C)C(=O)c1cc(F)ccc1-2	100 µM [falling, partial curve, poor fit]	–
CC1CCc2nc(NC(=O)COc3ccc(C(C)(C)C)cc3)sc2C1 (centres undefined)	5.62 µM [falling, full curve]	–
COc1ccc(CN2CCCC(C(=O)N(C)Cc3ccccc3)C2)cc1OC (centres undefined)	–	0.316 µM [rising, full curve, poor fit]
O=C(N/N=C/c1ccc(Br)s1)c1cccc([N+](=O)[O-])c1	–	2.24 µM [rising, full curve, poor fit]
COc1cc(OC)cc(C(=O)N2c3ccc(F)cc3CCC2C)c1 (centres undefined)	–	0.251 µM [rising, full curve, poor fit]
Cc1ccc(NC(=S)N(CCCN2CCOCC2)Cc2ccccn2)cc1	–	0.0158 µM [rising, full curve, poor fit]

SMILES	AC50 [1]	AC50 [2]
Cc1nc(CC(=O)c2c(C)cc(O)cc2O)cs1	0.126 µM [rising, full curve, poor fit]	4.47 µM [rising, full curve]
CCOC(=O)c1[nH]c2ccc(OCC)cc2c1NC(=O)CN1CCN(c2ccccn2)CC1	–	11.2 µM [rising, partial curve]
FC(F)(F)c1cccc(CN2CCCCCC2)c1	35.5 µM [falling, single point]	–
CC(=O)n1c2ccccc2c2c1c1ccccc1n2C	–	0.316 µM [rising, full curve]
CCOc1nc(-c2ccc(OC)cc2)ccc1-c1noc(C)n1	35.5 µM [rising, single point]	31.6 µM [rising, single point]
COc1ccc(NC(=O)CC2C(=O)N(c3ccc(Cl)cc3)C(=S)N2NC(=O)c2cccc(F)c2)cc1 (centres undefined)	22.4 µM [rising, single point]	20 µM [rising, partial curve]
CCOc1ccc(S(=O)(=O)Nc2ccc3oc(C)c(C(=O)OCCOC)c3c2)cc1	1.41 µM [rising, full curve, poor fit]	1.78 µM [rising, partial curve]
CCOc1ccc(NC(=O)N2CCC(NC(=O)C(Cc3ccc(OC)c(OC)c3)NC(C)=O)CC2)cc1 (centres undefined)	–	0.0398 µM [falling, full curve, poor fit]
NC(=O)COC(=O)c1c2c(nc3ccccc13)CCCCC2	–	0.2 µM [falling, full curve, poor fit]
Cc1ccc(S(=O)(=O)c2nc(NCc3ccc4c(c3)OCO4)sc2Cl)cc1	–	25.1 µM [rising, single point]
COc1ccc(CCNC(=O)CCc2ccc(S(=O)(=O)NCC(C)C)cc2)cc1	–	15.8 µM [rising, single point]
COC(=O)c1ccc2c(=O)n(-c3ccccc3)c(=S)[nH]c2c1	7.94 µM [falling, partial curve, poor fit]	–
O=C(Nc1cc2c3c(c1)C1CCCC1CN3CC1CCCC21)c1ccccc1 (centres undefined)	–	2.51 µM [rising, partial curve, poor fit]
CCNc1ncc2nc(-c3cn(C)c4ccccc34)c(=O)n(Cc3ccc(F)cc3)c2n1	3.55 µM [falling, partial curve]	–
Brc1ccc(-c2csc(NC3=NCCCCC3)n2)cc1	17.8 µM [rising, partial curve, poor fit]	0.501 µM [rising, partial curve, poor fit]
COc1cccc(/C=N\NC(=O)Cn2nnc3ccccc32)c1O	–	17.8 µM [falling, partial curve]
O=C(CCNc1cccc(Cl)c1)c1cccs1	20 µM [falling, single point]	35.5 µM [falling, single point]
COc1ccccc1N1N=C(c2cccs2)CC1c1ccccc1 (centres undefined)	14.1 µM [rising, partial curve, poor fit]	12.6 µM [rising, partial curve]

A draw from above in order of length of the SMILES, low to high:
SMILES	AC50 [1]	AC50 [2]
COc1ccccc1CNc1ncnc2nc[nH]c12	0.891 µM [rising, full curve, poor fit]	–
O=C(c1ccc(Br)s1)N1CCN(C/C=C/c2ccccc2)CC1	–	35.5 µM [rising, single point]
COc1cccc(OC)c1C(=O)Nn1c(-c2cccs2)nc2ccccc2c1=O	5.01 µM [rising, full curve, poor fit]	5.62 µM [rising, partial curve, poor fit]
C=CCOc1ccc(CN(C)Cc2nc3cc(C(F)(F)F)ccc3c(=O)[nH]2)cc1	–	6.31 µM [falling, partial curve, poor fit]
